In patent US6355626B1, “Antithrombin agents in treatment of asthma” (The Trustees of the University of Pennsylvania, priority 1994, dated 2002):
At least one structure is not confirmed: it was looked up by name or label, or the drawing left a doubt. Ends that are not written are not given here.

System: human airway smooth muscle cells
Experiment: Cytosolic calcium measurements in fura-2-loaded ASM cells
Format: cell-based
Settings: bradykinin 1 μM, added after α-thrombin 0.3 U/ml

Sequence: RPPGFSPFR [bradykinin]
- cytosolic calcium response to bradykinin after α-thrombin: evoked a similar response
